The list shows a part of the results.
Compound: c1cn2cc(-c3ccc4cn[nH]c4c3)nc(Nc3ccc(N4CCOCC4)cc3)c2n1 [entospletinib]
Assay: log2 fold change, soluble protein after heating vs DMSO (PISA); higher = thermal stabilisation; K562 cells, 10 uM, 30 min; active = over 0.2 and 3.5 SD of the protein, either way, in both replicates (recomputed)
Outline: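 K562 cells at 2×10^6 cells/mL were treated with 10 μM compound for 30 min. Aliquots were heated for 3 min across 48°C-58°C, pooled, and extracted in PBS with 0.5% NP-40 at 4°C; soluble protein was the supernatant after 21,000xg for 90 min. Soluble protein was quantified by TMTpro 16plex LC-MS/MS with channel sums equalised, and reported as log2 fold change in thermal stability against DMSO controls, with values from duplicates.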

Protein sequences, listed by entry. Tags and fused reporters are not part of them. Lines headed by an entry give the natural chain unless they say otherwise; changes in a name come on top.
UniProt Q14011: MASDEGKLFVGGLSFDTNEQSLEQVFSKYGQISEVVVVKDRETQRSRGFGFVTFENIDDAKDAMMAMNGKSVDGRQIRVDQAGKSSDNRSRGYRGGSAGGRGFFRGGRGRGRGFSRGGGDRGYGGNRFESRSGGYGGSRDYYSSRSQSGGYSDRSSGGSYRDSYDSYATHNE
UniProt P02452, whole entry, looked up: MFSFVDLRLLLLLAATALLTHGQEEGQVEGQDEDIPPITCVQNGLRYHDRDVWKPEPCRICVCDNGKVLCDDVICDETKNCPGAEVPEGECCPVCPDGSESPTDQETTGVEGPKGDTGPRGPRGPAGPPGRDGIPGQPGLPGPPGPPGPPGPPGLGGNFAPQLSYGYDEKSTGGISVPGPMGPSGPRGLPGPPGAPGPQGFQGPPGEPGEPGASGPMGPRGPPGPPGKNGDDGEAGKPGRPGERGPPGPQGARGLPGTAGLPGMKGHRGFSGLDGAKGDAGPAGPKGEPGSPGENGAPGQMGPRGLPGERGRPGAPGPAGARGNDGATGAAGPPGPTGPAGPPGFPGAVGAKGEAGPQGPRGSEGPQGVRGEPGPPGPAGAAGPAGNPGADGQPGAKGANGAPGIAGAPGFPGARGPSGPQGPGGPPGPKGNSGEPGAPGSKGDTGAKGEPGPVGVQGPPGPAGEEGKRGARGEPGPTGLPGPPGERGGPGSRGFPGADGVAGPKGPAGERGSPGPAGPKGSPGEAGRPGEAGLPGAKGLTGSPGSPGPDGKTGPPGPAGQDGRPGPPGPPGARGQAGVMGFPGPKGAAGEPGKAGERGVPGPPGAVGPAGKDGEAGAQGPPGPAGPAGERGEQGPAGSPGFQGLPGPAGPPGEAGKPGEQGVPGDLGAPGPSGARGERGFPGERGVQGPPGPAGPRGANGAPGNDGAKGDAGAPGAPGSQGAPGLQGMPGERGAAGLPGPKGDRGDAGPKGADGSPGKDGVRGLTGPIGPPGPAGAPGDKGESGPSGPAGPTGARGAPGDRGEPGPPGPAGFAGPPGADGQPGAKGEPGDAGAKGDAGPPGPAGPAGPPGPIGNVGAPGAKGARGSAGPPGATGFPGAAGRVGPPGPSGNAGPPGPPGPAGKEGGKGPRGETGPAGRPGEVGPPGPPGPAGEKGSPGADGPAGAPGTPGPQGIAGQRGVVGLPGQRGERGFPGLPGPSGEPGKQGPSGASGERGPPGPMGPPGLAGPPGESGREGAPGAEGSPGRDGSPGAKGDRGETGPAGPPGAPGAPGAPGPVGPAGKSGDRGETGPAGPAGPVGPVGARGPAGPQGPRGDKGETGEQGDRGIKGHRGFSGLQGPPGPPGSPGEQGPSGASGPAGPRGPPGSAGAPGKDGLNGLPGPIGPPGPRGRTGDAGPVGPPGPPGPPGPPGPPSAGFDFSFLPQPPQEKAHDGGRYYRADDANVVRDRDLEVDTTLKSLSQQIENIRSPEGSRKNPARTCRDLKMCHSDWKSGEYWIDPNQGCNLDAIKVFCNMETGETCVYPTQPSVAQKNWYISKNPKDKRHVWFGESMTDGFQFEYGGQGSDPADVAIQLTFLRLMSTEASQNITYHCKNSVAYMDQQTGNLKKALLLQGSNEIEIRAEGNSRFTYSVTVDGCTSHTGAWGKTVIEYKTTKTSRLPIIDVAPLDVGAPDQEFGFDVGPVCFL
UniProt P62633: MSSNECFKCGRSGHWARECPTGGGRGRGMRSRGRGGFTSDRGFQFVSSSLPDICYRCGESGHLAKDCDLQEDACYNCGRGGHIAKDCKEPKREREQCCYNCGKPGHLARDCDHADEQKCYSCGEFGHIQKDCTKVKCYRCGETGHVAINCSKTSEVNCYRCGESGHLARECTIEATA
UniProt P30622: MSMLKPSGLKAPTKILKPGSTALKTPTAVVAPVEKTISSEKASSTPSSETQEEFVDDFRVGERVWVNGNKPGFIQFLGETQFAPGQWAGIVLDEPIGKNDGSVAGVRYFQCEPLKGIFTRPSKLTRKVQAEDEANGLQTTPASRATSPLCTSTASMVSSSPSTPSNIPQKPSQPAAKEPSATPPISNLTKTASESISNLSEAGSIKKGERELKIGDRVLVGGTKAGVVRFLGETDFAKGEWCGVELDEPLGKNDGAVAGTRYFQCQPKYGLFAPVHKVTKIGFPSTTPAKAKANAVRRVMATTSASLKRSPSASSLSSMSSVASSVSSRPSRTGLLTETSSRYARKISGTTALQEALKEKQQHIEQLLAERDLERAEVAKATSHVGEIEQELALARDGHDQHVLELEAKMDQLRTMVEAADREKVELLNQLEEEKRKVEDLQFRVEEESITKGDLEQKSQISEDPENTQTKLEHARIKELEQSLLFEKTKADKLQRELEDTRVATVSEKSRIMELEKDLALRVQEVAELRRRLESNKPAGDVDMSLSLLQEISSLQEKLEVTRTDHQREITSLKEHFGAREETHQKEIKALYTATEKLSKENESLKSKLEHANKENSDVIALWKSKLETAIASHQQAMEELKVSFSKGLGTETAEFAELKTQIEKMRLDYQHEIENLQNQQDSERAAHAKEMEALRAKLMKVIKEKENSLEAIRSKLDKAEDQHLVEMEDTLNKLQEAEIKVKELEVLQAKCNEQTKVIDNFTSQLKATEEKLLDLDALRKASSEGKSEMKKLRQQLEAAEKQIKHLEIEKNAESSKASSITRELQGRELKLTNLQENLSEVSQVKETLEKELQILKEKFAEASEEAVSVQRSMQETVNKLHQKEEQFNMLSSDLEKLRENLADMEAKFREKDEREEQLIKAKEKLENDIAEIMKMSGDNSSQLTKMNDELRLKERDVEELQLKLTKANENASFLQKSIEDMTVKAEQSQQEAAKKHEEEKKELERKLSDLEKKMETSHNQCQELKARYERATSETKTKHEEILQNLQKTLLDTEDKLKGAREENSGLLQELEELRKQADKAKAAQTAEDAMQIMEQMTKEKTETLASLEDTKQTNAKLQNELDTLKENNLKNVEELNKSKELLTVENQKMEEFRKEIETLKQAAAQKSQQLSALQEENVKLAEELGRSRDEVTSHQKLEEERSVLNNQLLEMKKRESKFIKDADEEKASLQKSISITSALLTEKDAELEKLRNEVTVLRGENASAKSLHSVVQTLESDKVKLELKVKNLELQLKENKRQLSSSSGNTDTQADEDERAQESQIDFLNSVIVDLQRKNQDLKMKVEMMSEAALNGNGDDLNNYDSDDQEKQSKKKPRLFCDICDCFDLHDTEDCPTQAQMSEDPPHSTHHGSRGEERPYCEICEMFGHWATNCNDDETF
UniProt Q9H8M5: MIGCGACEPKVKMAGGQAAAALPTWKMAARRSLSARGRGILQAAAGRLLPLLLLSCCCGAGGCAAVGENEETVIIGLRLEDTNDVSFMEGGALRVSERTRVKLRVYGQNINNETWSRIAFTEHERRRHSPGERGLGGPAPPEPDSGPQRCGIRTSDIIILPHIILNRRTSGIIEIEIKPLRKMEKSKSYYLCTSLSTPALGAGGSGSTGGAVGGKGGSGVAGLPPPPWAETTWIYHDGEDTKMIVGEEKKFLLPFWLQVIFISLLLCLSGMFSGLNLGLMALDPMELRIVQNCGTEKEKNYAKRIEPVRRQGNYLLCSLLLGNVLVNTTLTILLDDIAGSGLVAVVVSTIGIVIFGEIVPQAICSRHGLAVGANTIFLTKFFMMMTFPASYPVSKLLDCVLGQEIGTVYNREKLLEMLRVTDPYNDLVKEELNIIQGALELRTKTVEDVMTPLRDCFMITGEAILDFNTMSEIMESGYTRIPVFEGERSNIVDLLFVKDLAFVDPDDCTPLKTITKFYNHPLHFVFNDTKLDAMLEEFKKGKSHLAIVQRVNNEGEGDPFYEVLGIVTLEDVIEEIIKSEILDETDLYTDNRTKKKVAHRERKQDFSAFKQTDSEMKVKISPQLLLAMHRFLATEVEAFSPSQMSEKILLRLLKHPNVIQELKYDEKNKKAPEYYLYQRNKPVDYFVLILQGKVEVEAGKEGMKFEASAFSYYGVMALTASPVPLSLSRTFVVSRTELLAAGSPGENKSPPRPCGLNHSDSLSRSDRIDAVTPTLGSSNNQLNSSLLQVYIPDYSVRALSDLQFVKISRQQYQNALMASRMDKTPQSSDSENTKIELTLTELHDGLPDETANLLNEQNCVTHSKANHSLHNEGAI
UniProt Q9NRP2: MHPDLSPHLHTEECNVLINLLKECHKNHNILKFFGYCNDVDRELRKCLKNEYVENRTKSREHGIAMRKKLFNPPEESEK
UniProt Q9Y696: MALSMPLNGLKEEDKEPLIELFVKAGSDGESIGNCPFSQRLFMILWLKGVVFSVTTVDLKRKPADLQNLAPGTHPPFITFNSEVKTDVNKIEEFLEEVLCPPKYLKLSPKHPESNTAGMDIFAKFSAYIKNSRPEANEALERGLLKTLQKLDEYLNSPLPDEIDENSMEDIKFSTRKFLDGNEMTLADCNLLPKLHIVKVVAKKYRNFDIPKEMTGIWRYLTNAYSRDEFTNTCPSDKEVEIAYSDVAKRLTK
UniProt O94985: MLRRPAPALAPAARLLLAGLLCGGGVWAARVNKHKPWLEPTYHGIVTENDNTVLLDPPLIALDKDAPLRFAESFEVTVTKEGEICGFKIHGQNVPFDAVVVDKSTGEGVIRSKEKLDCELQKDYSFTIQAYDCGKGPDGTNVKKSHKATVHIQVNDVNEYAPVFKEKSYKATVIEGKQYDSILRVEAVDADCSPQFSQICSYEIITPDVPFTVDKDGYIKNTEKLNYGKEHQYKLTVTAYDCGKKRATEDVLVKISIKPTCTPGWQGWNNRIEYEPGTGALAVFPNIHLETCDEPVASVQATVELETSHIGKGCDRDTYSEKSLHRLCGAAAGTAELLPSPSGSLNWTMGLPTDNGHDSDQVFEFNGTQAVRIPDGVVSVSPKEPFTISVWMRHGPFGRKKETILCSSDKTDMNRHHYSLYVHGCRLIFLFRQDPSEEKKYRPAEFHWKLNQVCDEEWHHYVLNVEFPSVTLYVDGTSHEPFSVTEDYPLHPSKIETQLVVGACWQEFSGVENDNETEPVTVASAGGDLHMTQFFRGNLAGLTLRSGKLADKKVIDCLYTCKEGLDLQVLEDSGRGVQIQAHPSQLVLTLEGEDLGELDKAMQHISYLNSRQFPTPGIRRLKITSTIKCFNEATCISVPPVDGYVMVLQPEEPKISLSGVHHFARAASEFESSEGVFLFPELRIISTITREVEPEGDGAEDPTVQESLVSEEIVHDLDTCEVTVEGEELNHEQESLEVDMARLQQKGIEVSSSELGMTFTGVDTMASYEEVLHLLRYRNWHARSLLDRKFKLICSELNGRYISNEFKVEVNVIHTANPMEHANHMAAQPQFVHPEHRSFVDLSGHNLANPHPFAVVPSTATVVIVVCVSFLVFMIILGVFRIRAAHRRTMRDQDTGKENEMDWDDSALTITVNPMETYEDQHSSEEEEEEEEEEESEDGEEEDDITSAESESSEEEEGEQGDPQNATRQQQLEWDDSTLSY
UniProt Q92600, whole entry, looked up: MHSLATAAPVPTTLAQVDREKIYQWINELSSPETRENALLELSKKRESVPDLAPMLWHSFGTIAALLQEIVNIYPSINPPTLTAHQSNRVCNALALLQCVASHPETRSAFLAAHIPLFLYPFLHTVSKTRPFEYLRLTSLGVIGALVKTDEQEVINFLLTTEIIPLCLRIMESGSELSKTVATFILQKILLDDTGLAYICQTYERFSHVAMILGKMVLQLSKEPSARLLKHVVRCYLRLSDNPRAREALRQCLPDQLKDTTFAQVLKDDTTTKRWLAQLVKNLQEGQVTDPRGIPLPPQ
UniProt O14967: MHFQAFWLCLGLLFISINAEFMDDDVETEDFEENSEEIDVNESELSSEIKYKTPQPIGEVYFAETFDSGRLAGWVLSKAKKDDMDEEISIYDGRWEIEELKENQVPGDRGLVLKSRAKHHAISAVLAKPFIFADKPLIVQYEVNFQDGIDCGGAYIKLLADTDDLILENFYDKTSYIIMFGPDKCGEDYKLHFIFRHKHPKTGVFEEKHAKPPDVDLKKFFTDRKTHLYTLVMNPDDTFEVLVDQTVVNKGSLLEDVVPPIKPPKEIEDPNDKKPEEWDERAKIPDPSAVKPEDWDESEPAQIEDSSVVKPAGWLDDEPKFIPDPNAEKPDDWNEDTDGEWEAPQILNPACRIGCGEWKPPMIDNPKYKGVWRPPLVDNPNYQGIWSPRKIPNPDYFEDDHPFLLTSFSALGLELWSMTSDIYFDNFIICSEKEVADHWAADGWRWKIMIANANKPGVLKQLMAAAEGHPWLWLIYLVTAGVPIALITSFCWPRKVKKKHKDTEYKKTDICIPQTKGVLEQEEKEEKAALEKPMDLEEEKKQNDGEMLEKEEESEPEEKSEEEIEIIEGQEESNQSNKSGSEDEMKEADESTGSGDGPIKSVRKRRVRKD
UniProt Q96FZ7: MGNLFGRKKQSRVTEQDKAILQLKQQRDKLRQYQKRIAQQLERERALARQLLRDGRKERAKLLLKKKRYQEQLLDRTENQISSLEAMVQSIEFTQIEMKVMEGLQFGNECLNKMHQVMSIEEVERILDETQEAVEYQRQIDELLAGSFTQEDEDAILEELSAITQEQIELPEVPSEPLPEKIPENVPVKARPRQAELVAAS

log2 fold change, inactive:
CKAP5 (UniProt Q14008) 0.049
CLIC6 (UniProt Q96NY7) 0.143
CNOT10 isoform 6 (UniProt Q9H9A5) -0.006
CIRBP isoform 2 (UniProt Q14011) 0.097
COL1A1 (UniProt P02452) 0.227
CNBP isoform 4 (UniProt P62633) 0.041
CLIP1 isoform 2 (UniProt P30622) 0.047
CHMP7 (UniProt Q8WUX9) -0.132
CLIP1 isoform 1 (UniProt P30622) 0.011
CNOT11 (UniProt Q9UKZ1) -0.067
CLTC (UniProt Q00610) 0.004
CIRBP (UniProt Q14011) -0.024
CHURC1-FNTB (UniProt B4DL54) 0.027
CLASP1 (UniProt Q7Z460) 0.071
COA4 isoform 2 (UniProt Q9NYJ1) 0.062
CNNM2 (UniProt Q9H8M5) -0.049
CMC2 (UniProt Q9NRP2) -0.022
CLIC4 (UniProt Q9Y696) -0.026
COL18A1 (UniProt P39060) 0.209
CNST (UniProt Q6PJW8) -0.033
CNPY3 (UniProt Q9BT09) 0.021
CLSTN1 (UniProt O94985) 0.005
CNOT9 isoform 2 (UniProt Q92600) -0.032
CNP (UniProt P09543) -0.045
COIL (UniProt P38432) -0.197
CMC1 (UniProt Q7Z7K0) 0.055
CLGN (UniProt O14967) -0.024
CHMP6 (UniProt Q96FZ7) 0.022
CLCC1 (UniProt Q96S66) -0.023
COG3 (UniProt Q96JB2) 0.043

Quoted at random: 2 records from the list
log2 fold change, inactive:
CIRBP (UniProt Q14011) -0.024
CNOT10 isoform 6 (UniProt Q9H9A5) -0.006
